No constants are given. Whether binding was seen depends on the method and setting. Binding seen in cells or lysates may run through a third protein. Some entries that bind do so weakly or less than the wild type.

Chains of the proteins cited; added tags and fusions are not shown.
UniProt Q9ULZ3: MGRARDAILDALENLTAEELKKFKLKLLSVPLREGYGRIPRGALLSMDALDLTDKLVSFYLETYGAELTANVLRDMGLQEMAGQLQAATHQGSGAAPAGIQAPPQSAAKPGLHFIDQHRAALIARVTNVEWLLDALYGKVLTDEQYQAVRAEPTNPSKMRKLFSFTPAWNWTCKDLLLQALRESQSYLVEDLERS
UniProt P29466: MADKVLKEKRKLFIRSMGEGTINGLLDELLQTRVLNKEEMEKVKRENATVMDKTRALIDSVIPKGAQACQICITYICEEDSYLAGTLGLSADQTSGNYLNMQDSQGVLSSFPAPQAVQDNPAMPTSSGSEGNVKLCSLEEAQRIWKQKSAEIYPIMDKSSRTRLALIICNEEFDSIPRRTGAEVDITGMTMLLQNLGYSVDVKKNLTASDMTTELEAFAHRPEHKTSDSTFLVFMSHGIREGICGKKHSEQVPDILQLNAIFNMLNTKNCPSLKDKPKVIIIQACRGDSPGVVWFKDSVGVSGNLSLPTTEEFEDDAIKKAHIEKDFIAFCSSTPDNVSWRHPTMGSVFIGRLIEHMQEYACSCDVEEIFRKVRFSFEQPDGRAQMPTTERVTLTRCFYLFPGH

Experiment [1] has as its target ASC, endogenous in human peripheral blood mononuclear cell-derived macrophages (HMDMs) (human (endogenous in HMDMs)) (UniProt Q9ULZ3). The experiment in a line: co-IP; endogenous proteins of HMDMs primed with LPS (100 ng/mL, 4 h), ± DCL (3, 10, 30, 100 nM, 1 h), then ATP (5 mM, 45 min); lysate incubated with anti-ASC or anti-NLRP3 antibody or control IgG at 4°C overnight, protein A/G agarose beads; Western blotting. (A western blot detects proteins with antibodies after separation by electrophoresis.)

Experiment [2] has as its target T1, apoptosis-associated speck-like protein containing a caspase recruitment domain (ASC), endogenous in mouse BMDMs (mouse (endogenous in BMDMs)) (UniProt Q9EPB4).
T1 sequence: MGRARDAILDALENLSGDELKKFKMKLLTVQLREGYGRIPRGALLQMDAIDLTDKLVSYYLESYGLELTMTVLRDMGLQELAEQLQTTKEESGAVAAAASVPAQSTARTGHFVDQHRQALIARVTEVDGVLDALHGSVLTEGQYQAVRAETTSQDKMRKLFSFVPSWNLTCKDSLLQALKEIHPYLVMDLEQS
Nature of the experiment: co-IP; endogenous proteins of BMDMs primed with LPS (100 ng/mL, 4 h), ± DCL (3, 10, 30, 100 nM, 1 h), then ATP (5 mM, 45 min); lysate incubated with anti-ASC or anti-NLRP3 antibody or control IgG at 4°C overnight, protein A/G agarose beads; Western blotting.

For the molecule “pro-caspase-1, endogenous in human peripheral blood mononuclear cell-derived macrophages (HMDMs) (from UniProt P29466 1-404) (enzyme)”, the binding entry in experiment [1] is reported as “binds”.

B1: pro-caspase-1, endogenous in mouse BMDMs (enzyme, UniProt P29452 1-402)
chain: MADKILRAKRKQFINSVSIGTINGLLDELLEKRVLNQEEMDKIKLANITAMDKARDLCDHVSKKGPQASQIFITYICNEDCYLAGILELQSAPSAETFVATEDSKGGHPSSSETKEEQNKEDGTFPGLTGTLKFCPLEKAQKLWKENPSEIYPIMNTTTRTRLALIICNTEFQHLSPRVGAQVDLREMKLLLEDLGYTVKVKENLTALEMVKEVKEFAACPEHKTSDSTFLVFMSHGIQEGICGTTYSNEVSDILKVDTIFQMMNTLKCPSLKDKPKVIIIQACRGEKQGVVLLKDSVRDSEEDFLTDAIFEDDGIKKAHIEKDFIAFCSSTPDNVSWRHPVRGSLFIESLIKHMKEYAWSCDLEDIFRKVRFSFEQPEFRLQMPTADRVTLTKRFYLFPGH
For B1, the binding result in experiment [2] is reported as “binds”.

These data come from PMC12408923.
